# Measurements reported in publication PMC5011342, “A high throughput drug screening assay to identify compounds that promote oligodendrocyte differentiation using acutely dissociated and purified oligodendrocyte precursor cells” (BMC Research Notes, 2016).
# System: expanded OPCs
# Experiment: cells
# Settings: Rattus norvegicus, 72 h
# Protocol: Having established a consistent assay for measuring OL differentiation in vitro, the next step was to utilize this assay to assess the ability of a wide array of compounds to promote OL differentiation. Prior to library screening, we first established the maximum non-toxic dose of each compound in the library. […] Therefore, we added each compound in the NIH clinical collection (NCC) library to OPCs at 10, 1, and 0.1 µM concentrations. Three days later, we assessed viability of the treated cells by measuring AlamarBlue fluorescence, a measure of cell viability (see “Methods” section). […] Appropriately, we established three sets of screening concentrations for library compounds: non-toxic compounds were tested at 10 and 2 µM, slightly toxic compounds (only toxic at 10 µM) were tested at 2 and 0.4 µM, and very toxic compounds were tested at 0.4 and 0.08 µM.
# OPCs were expanded in vitro by seeding into PDL-coated tissue culture flasks at 1000–2000 cells/cm^2 in differentiation media supplemented with 10 ng/ml PDGF-AA. Proliferating OPCs were fed every 2–3 days and supplemented with 2–3× concentration of PDGF as needed to prevent OPC differentiation. After 6–7 days of proliferation, OPCs were harvested by trypsinization, plated into PDL-coated 96-well Falcon plates and centrifuged at 200×g to facilitate cell attachment, survival, and even distribution of cells. Expanded OPCs were seeded in differentiation media at 10,000 cells/well and incubated for 2 h at 37 °C, 10 % CO2 prior to addition of compounds. The NCC library was diluted and added to cells at 10, 1, and 0.1 µM; each concentration was tested in quadruplicate. As a positive control for the induction of toxicity, 5 ng/ml tunicamycin was added to 8 wells in each plate. Three days later, a 1:10 dilution of alamarBlue® (AB) was added to each well and cells were incubated 4 h at 37 °C, 10 % CO2. AB fluorescence was measured using a PerkinElmer Victor II fluorescence microplate reader (PerkinElmer, Waltham, MA) with 560 nm excitation/590 nm emission filters. […]
smiles,measurement,setting,value
COc1ccc(CC(C)NCC(O)c2ccc(O)c(NC=O)c2)cc1 (stereo not drawn) [Formoterol],viability at 0.1 µM,read-out: 0.1 µM (% DMSO),99.3%
same,viability at 1 µM,read-out: 1 µM (% DMSO),98%
same,viability at 10 µM,read-out: 10 µM (% DMSO),92.5%
